System: zebrafish larvae
Assay: Single toxicity of chlorpyrifos and butachlor to zebrafish larvae
Type: in vivo
Description: H. Data processing: Calculating the LC50 value of pesticides on larvae and their 95% confidence limits by probit analysis based on the number and time of dead fish larvae, and using 95% confidence limit of LC50 as the criterion to determine whether the toxicity difference of different pesticides is significant, LC50≤0.1 mg a.i. L^−1, is hypertoxic; 0.1<LC50≤1.0 mg a.i. L^−1, is high toxicity; 1.0<LC50≤[…] a.i. L^−1, is medium toxicity; LC50>10.0 mg a.i. L^−1 is low toxicity. The maximum allowable concentration of MPC employs 100 as the protection factor, the formula is: MPC=96 h-LC50/100, to get the maximum allowable concentration of a poison.
H. Data processing: Calculating the LC50 value of pesticides on larvae and their 95% confidence limits by probit analysis based on the number and time of dead fish larvae, and using 95% confidence limit of LC50 as the criterion to determine whether the toxicity difference of different drugs is significant, LC50≤0.1 mg a.i. L^−1, is hypertoxic; 0.1<LC50≤1.0 mg a.i. L^−1, is high toxicity; 1.0<LC50≤10.0 mg a.i. L^−1, is medium toxicity; LC50>10.0 mg a.i. L^−1, is low toxicity, the maximum allowable concentration of MPC employs 100 as the protection factor, the formula is: MPC=96 h-LC50/100, to get the maximum allowable concentration of a poison.
Wherein the larvae in the migratory period in step E refer to fish 120 h after fertilization of eggs, for improving the accuracy of the test.

Compound: CCCCOCN(C(=O)CCl)c1c(CC)cccc1CC [Butachlor, butachlor]
- Slope (exposure time 24 h): 3.73
- Slope (exposure time 48 h): 3.96
- Slope (exposure time 72 h): 3.88
- Slope (exposure time 96 h): 4.76

Compound: CCOP(=S)(OCC)Oc1nc(Cl)c(Cl)cc1Cl [Chlorpyrifos, chlorpyrifos]
- Slope (exposure time 24 h): 3.73
- Slope (exposure time 48 h): 5.39
- Slope (exposure time 72 h): 5.38
- Slope (exposure time 96 h): 4.43
